Results deposited as PubChem BioAssay AID1159578 (Peter MacCallum Cancer Centre, 2015)
The whole screen tested about 18,000 reagents; below is an unselected part. Over the whole deposit, about 1,030 (5.7%) got an active call. 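Inactive calls also include pools with fewer than 3300 nuclei, whose migration was not assessed.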 Raw values are not corrected between plates. No sequences are given here.

Assay: 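Knock-downs that alter how fast lymphatic endothelial cells migrate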 (primary screen)
Cell system: human lymphatic endothelial cells
Reagent: siRNA pool against human genes, 40 nM
Duration: 48 h after transfection
Read-out: 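High-content imaging of dye-stained cells in a scratch assay measures filled wound area and nuclei per well; duplicate means given as ratio to mock and robust z-score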
Direction: migration robust z-score: higher = faster migration into the scratch; migration relative to mock: higher = more scratch area covered than mock; nuclei per well: higher = more cells in the well
Hit rule: 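Pools averaging fewer than 3300 nuclei are never called; remaining pools count as changed when migration robust z lies outside -2 to 2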
Meaning of the calls: active = migration changed; inactive = no migration change, or too few cells

target gene	migration robust z-score	migration class with cell-count check	migration relative to mock	nuclei per well, duplicate mean	Outcome
ADGRD2 (adhesion G protein-coupled receptor D2)	-0.26	migration z between -2 and 2; enough cells	0.76	4931	inactive
NPAP1 (nuclear pore associated protein 1)	-0.26	migration z between -2 and 2; enough cells	0.82	5700	inactive
EXOC3L4 (exocyst complex component 3 like 4)	-0.48	migration z between -2 and 2; enough cells	0.76	6406	inactive
CCDC144NL (CCDC144A N-terminal like (pseudogene))	-0.36	migration z between -2 and 2; enough cells	0.8	4776	inactive
SMPX (small muscle protein X-linked)	2.68	migration z above 2; enough cells	1.58	5010	active
MYBPC2 (myosin binding protein C2)	0.03	migration z between -2 and 2; enough cells	0.9	6245	inactive
OR7E85BP	-0.22	migration z between -2 and 2; enough cells	0.83	5936	inactive
SUZ12 (SUZ12 polycomb repressive complex 2 subunit)	-1.84	migration z between -2 and 2; enough cells	0.45	4272	inactive
MSC (musculin)	-0.13	migration z between -2 and 2; enough cells	0.78	5403	inactive
ZBTB12 (zinc finger and BTB domain containing 12)	0.52	migration z between -2 and 2; enough cells	1.02	6524	inactive
DMRTA1 (DMRT like family A1)	0.44	migration z between -2 and 2; enough cells	1	6328	inactive
BMPER (BMP binding endothelial regulator)	1.02	migration z between -2 and 2; enough cells	1.16	5484	inactive
H2AC4 (H2A clustered histone 4)	-0.52	migration z between -2 and 2; enough cells	0.75	5496	inactive
CTSS (cathepsin S)	-0.78	migration z between -2 and 2; enough cells	0.65	5488	inactive
MAP2K1 (mitogen-activated protein kinase kinase 1)	0.34	migration z between -2 and 2; enough cells	0.87	4824	inactive
CCL11 (C-C motif chemokine ligand 11)	-0.24	migration z between -2 and 2; enough cells	0.82	5738	inactive
AFG1L (AFG1 like ATPase)	-1.25	migration z between -2 and 2; enough cells	0.56	4475	inactive
MYL6B (myosin light chain 6B)	0.4	migration z between -2 and 2; enough cells	0.99	6803	inactive
IFNAR1 (interferon alpha and beta receptor subunit 1)	-0.48	migration z between -2 and 2; enough cells	0.76	6776	inactive
RAD17 (RAD17 checkpoint clamp loader component)	-0.99	migration z between -2 and 2; enough cells	0.62	5110	inactive
FAM174B (family with sequence similarity 174 member B)	0.1	migration z between -2 and 2; enough cells	0.92	5986	inactive
WIPF3 (WAS/WASL interacting protein family member 3)	-1.71	migration z between -2 and 2; enough cells	0.45	4496	inactive
SRMS	-3.27	migration z below -2; enough cells	0.18	3972	active
RPN1 (ribophorin I)	-1.94	migration z between -2 and 2; enough cells	0.43	3340	inactive
CCDC77 (coiled-coil domain containing 77)	-0.45	migration z between -2 and 2; enough cells	0.77	6144	inactive
POLDIP2 (DNA polymerase delta interacting protein 2)	0.66	migration z between -2 and 2; enough cells	1.05	6575	inactive
KAT5 (lysine acetyltransferase 5)	-0.33	migration z between -2 and 2; enough cells	0.8	6079	inactive
CASP6 (caspase 6)	-0.05	migration z between -2 and 2; enough cells	0.79	5186	inactive
PID1 (phosphotyrosine interaction domain containing 1)	0.66	migration z between -2 and 2; enough cells	1.06	6256	inactive
ZNF831 (zinc finger protein 831)	-0.89	migration z between -2 and 2; enough cells	0.66	5550	inactive
GPR87 (G protein-coupled receptor 87)	-1.2	migration z between -2 and 2; enough cells	0.57	5043	inactive
SAT2 (spermidine/spermine N1-acetyltransferase family member 2)	1.92	migration z between -2 and 2; enough cells	1.18	6949	inactive
SOCS5 (suppressor of cytokine signaling 5)	-1.14	migration z between -2 and 2; enough cells	0.58	5596	inactive
GCSH (glycine cleavage system protein H)	0.16	migration z between -2 and 2; enough cells	0.84	5418	inactive
OLAH (oleoyl-ACP hydrolase)	0.26	migration z between -2 and 2; enough cells	0.86	5167	inactive
RDH8 (retinol dehydrogenase 8)	0.28	migration z between -2 and 2; enough cells	0.86	5966	inactive
ITGB4 (integrin subunit beta 4)	0.96	migration z between -2 and 2; enough cells	0.99	4426	inactive
ALDH2 (aldehyde dehydrogenase 2 family member)	0.83	migration z between -2 and 2; enough cells	0.96	5742	inactive
IFNGR1 (interferon gamma receptor 1)	-0.7	migration z between -2 and 2; enough cells	0.67	6462	inactive
SAGE1 (sarcoma antigen 1)	0.12	migration z between -2 and 2; enough cells	0.92	5714	inactive
CRTC2 (CREB regulated transcription coactivator 2)	0.27	migration z between -2 and 2; enough cells	0.96	6859	inactive
FBXO9 (F-box protein 9)	0.96	migration z between -2 and 2; enough cells	0.99	5417	inactive
POLR1C (RNA polymerase I and III subunit C)	1.64	migration z between -2 and 2; enough cells	1.12	6476	inactive
CHRNA2 (cholinergic receptor nicotinic alpha 2 subunit)	0.1	migration z between -2 and 2; enough cells	0.82	5958	inactive
SYNGR2 (synaptogyrin 2)	-2.46	migration z below -2; enough cells	0.25	5636	active
KLF9 (KLF transcription factor 9)	0.99	migration z between -2 and 2; enough cells	1	5312	inactive
AAK1 (AP2 associated kinase 1)	0.2	migration z between -2 and 2; enough cells	0.84	4564	inactive
KYAT3 (kynurenine aminotransferase 3)	-0.42	migration z between -2 and 2; enough cells	0.72	5385	inactive
PWWP3A (PWWP domain containing 3A, DNA repair factor)	-1.49	migration z between -2 and 2; enough cells	0.5	6560	inactive
DIXDC1 (DIX domain containing 1)	-1.21	migration z between -2 and 2; enough cells	0.57	4768	inactive
RGS18 (regulator of G protein signaling 18)	0.38	migration z between -2 and 2; enough cells	0.98	4612	inactive
CYP4B1 (cytochrome P450 family 4 subfamily B member 1)	-0.86	migration z between -2 and 2; enough cells	0.64	5730	inactive
DYRK4 (dual specificity tyrosine phosphorylation regulated kinase 4)	1.15	migration z between -2 and 2; enough cells	1.02	6406	inactive
CCR2 (C-C motif chemokine receptor 2)	0.06	migration z between -2 and 2; enough cells	0.82	5279	inactive
MRPS30 (mitochondrial ribosomal protein S30)	0.62	migration z between -2 and 2; enough cells	0.92	5546	inactive
LEO1 (LEO1 component of Paf1/RNA polymerase II complex)	-0.67	migration z between -2 and 2; enough cells	0.71	4347	inactive
TANK (TRAF family member associated NFKB activator)	2	migration z between -2 and 2; enough cells	1.4	5827	inactive
